Paper PMC4412466 (Supramolecular chemistry, 2014)

Assay: Phase solubility diagram of container with excess cinnarizine
Assay type: physicochemical
Settings: 20 mM 1 used with excess cinnarizine, 50 mM NaOAc, pD 4.74

concentration of drug in final solution: 260 µM
Compound: C(=C\c1ccccc1)/CN1CCN(C(c2ccccc2)c2ccccc2)CC1 [cinnarizine]
